Laboratory results published in US20040054158A1.

Assays:
[1] = biological target: CTLA-4 expressed on cells (COS transfectants); experiment: flow cytometry on transfected cells
[2] = biological target: CD28 expressed on cells (COS transfectants); experiment: flow cytometry on transfected cells

binding [1]: no binding | binding [2]: no binding
B1: murine GL50-1Ig fusion protein (Fc fusion)
chain: ETEVGAMVGSNVVLSCIDPHRRHFNLSGLYVYWQIENPEVSVTYYLPYKSPGINVDSSYKNRGHLSLDSMKQGNFSLYLKNVTPQDTQEFTCRVFMNTATELVKILEEVVRLRVAANFSTPVISTSDSSNPGQERTYTCMSKNGYPEPNLYWINTTDNSLIDTALQNNTVYLNKLGLYDVISTLRLPWTSRGDVLCCVENVALHQNITSISQAESFTGNNTKNPQETHNNEEPRGPTIKPCPPCKCPAPNLEGGPSVFIFPPKIKDVLMISLSPIVTCVVVDVSEDDPDVQISWFVNNVEVHTAQTQTHREDYNSTLRVVSALPIQHQDWMSGKAFACAVNNKDLPAPIERTISKPKGSVRAPQVYVLPPPEEEMTKKQVTLTCMVTDFMPEDIYVEWTNNGKTELNYKNTEPVLDSDGSYFMYSKLRVEKKNWVERNSYSCSVVHEGLHNHHTTKSFSRTPGK

These are yes or no findings as the source states them, for the method shown. Sequences can lack the tags named with a protein.
